Library screening results

The chains behind the UniProt entries cited, without tags or fusion partners.
UniProt E9BF75, entry or part of it: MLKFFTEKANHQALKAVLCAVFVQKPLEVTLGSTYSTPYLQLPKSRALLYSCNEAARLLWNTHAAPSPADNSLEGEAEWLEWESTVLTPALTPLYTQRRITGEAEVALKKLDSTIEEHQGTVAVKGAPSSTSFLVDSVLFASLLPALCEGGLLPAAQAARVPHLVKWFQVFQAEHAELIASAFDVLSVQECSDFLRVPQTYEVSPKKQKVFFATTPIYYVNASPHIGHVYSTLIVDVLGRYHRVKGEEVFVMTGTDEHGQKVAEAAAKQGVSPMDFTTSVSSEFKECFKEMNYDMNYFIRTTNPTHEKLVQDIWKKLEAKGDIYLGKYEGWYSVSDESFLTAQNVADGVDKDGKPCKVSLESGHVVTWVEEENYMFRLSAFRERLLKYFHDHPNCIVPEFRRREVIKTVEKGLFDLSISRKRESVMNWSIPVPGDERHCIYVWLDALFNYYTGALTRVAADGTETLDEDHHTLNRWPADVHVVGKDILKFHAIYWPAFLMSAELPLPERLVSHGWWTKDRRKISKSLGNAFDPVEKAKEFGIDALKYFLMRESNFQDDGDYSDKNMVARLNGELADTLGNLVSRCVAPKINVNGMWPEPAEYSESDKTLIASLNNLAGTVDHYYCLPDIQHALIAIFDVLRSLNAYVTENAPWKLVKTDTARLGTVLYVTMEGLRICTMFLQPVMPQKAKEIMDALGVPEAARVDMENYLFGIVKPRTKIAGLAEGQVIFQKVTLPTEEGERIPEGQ

Measurements from “University of Dundee, Small-Polar-MMV Screening Library” (2021), ChEMBL document CHEMBL3988442.

Results are percentages, as filed.
How 0% and 100% were set is not recorded. Most values in the screen are low, and negative values occur.
This is an unselected part of the compounds tested.

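Primary screen of methionyl-tRNA synthetase; the read-out is not stated. Target: Methionyl-tRNA synthetase (putative), Leishmania donovani (UniProt E9BF75). The test concentration is not given. The values are filed as inhibition. Of about 68,000 compounds tested this way, about 24 (0.035%) reached 50% or more in at least one test.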

Compound	inhibition
O=C1COC2(CCN(c3ncccn3)CC2)CN1c1ccsc1	6.767
Cc1nc(NC(=O)C(C)N2CCN(c3cnccn3)CC2)sc1C (configuration not stated)	14.29
COc1ccc2cc(CNCc3c(C)nn(C)c3N(C)C)ccc2c1	17.48
Cc1nc(CN2CCN(C(=O)Cc3cccc(Cl)c3)CC2)no1	10.68
CCOCC(=O)N1CCC(Cc2nnc(SC)n2C)CC1	8.447
CCOc1cc(NC(=O)N2CCC3(CCOCC3)C2)ccc1C	12.01
Cc1occc1C(=O)N1CCCC1c1ccc(C(=O)N2CCOCC2)s1 (configuration not stated)	12.71
Cc1ncccc1OC1(C(=O)NCCC2CCCN2C)CCNCC1 (configuration not stated)	2.135
COCC(=O)N1CCC2(CC1)CCn1c(-c3cccc(OC)c3)cnc12	8.696
COc1ccc(C2CC(=O)Nc3c2cnn3C2CCCC2)cc1 (configuration not stated)	13.33
O=C(NCc1ccoc1)c1ccc(C2CCCN2CC2CCOCC2)s1 (configuration not stated)	2.667
Cc1cc(N(Cc2ccon2)S(C)(=O)=O)ccc1Br	2.326
CN(C)C(=O)CN1CCC2(CCCN(Cc3ccoc3)C2)C1=O (configuration not stated)	13.74
O=C(C(c1ccccc1)N1CCc2cncnc2C1)N1CCCCC1 (configuration not stated)	7.519
CCc1cnc2c(c1NCc1ccncc1)c(=O)n(C)c(=O)n2C	11.33
O=C(CSC1=NS(=O)(=O)c2cc(F)ccc2N1)Nc1cccc(Cl)c1	5.882
O=c1cc(CN2C[C@H]3CC[C@@H]2CN(Cc2ccccc2)C3)[nH]c(=O)[nH]1	8.052
COCC1c2nnn(CC3CC3)c2CCN1C(=O)N1CCCC1 (configuration not stated)	-3.093
CCOCc1ccc(NC(=O)N2CCCC2c2nncn2C)cc1 (configuration not stated)	13.4
CC(C)=CCN1CCN(C(=O)C2CC2)CC1	6.977
O=C(Nc1nncs1)N1CCC(CCO)CC1	4.337
OCC(CO)Nc1ccc2ccc(Cl)c(Cl)c2n1	11.28
CC(C)S(=O)(=O)CC(=O)N1CCCC(n2ccnc2)C1 (configuration not stated)	3.125
Cc1cc(C(N)=O)ccc1NC(=O)c1nc(N2CCCC2)ncc1Cl	7.619
O=C(NC[C@H]1CCCC[C@H]1O)c1cccc2[nH]c(-c3cccs3)nc12	4.722
CCCn1ccc(C(=O)N2CCC(C)CC2)n1	13.39
Cc1cc(N2CCN(c3ccc(=O)[nH]n3)CC2)nc(-c2ccncc2)n1	14.35
NC(=O)N1CCCN(C2CCc3ccc(F)cc32)CC1 (configuration not stated)	10.87
O=C(N[C@@H]1CN(Cc2cccs2)[C@@H]2COC[C@@H]21)C1CCC1	12.06
O=C(O)c1nnn(-c2cccc(C(F)(F)F)c2)c1-c1ccncc1	-3.499
CC(=O)Nc1ccc(/C=C/c2ncc(C(=O)O)s2)cc1	10.48
O=C(CC1CCN(CCN2CCCCC2)CC1)N1CCOCC1	8.075
O=c1c(NCCc2ccc(O)cc2)c(NCc2ccccn2)c1=O	15.86
COCC1CN(Cc2cc(C)on2)Cc2cnn(C)c21 (configuration not stated)	12.05
O=C(CS(=O)(=O)c1ccccc1Cl)NC1CCCCNC1=O (configuration not stated)	11.74
Cc1cc(C)n(CC(C)Nc2nc(-c3ccncc3)nc3c2CNC3)n1 (configuration not stated)	1.577
Cc1ncsc1CCN1CCC(N(C)Cc2noc(C(C)C)n2)C1 (configuration not stated)	9.235
O=c1ccc(-c2ccccc2F)nn1CCN1CCCS1(=O)=O	13.01
c1cc(CNCc2ccnc(N3CCCC3)c2)c2c(c1)OCCCO2	12.36
Cc1noc2ncc(C(=O)N3CCCC(n4ccnc4C)C3)cc12 (configuration not stated)	12.03
Cc1ccc2nc(CN3CCN(C4CCCCC4)C(=O)C3)cc(O)c2c1	9.536
Cn1cccc1C(=O)NCc1ccnc(C2CCCOC2)n1 (configuration not stated)	9.884
COc1ccc(C)c(NC(=O)NCc2cccc(N(C)C)n2)c1	15.62
CC(C)c1nc(CN2CCOC(Cn3cncn3)C2)cs1 (configuration not stated)	8.101
Cc1ccc(-c2nnc(NC(=O)c3ccn(C)c(=O)c3)[nH]2)s1	16.15
Cc1ccc(C(=O)N2CCO[C@H]3[C@H](OCc4ccccn4)CC[C@@H]32)o1	10.96
O=C(Cc1c(F)cccc1F)N1CCN(CC(=O)N2CCCC2)CC1	5.051
Cc1cc(CN(C)C(=O)NCc2ccnc(SC(C)(C)C)c2)no1	8.791
CCCC(=O)NC1CCCN(Cc2cccs2)C1 (configuration not stated)	13
Cc1ncc(COc2cccc3c2NC(=O)CO3)s1	25.27
Cc1cccc(-c2nc(N)nc3c2CN(C(=O)c2cc(C)n[nH]2)C3C)c1 (configuration not stated)	13.4
CC(c1ccon1)N(C)C(=O)C1CCN(CC(N)=O)CC1 (configuration not stated)	11.11
CN(Cc1ccco1)[C@@H]1CN(Cc2ccsc2)C[C@@H]2CCCO[C@@H]21	2.614
CC(=O)N(Cc1ncc(C(C)C)o1)C1CCN(Cc2cc(C)on2)C1 (configuration not stated)	4.762
Cc1cc(C(=O)NCCN2CCCCC2C)nn1C(C)(C)C (configuration not stated)	12.38